For the assay, the target named is T1, tetherin (Bst2), endogenous (human (endogenous in HeLa)), Q10589.
T1 chain: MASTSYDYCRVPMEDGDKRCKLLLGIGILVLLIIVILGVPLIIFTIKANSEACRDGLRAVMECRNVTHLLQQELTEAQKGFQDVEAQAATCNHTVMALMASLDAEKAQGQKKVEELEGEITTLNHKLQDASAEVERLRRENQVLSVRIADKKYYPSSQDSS
The experiment in a line: non-reducing SDS-PAGE and western blot; HeLa cell lysates (1% Triton‐x100, 1 mM EDTA, 150 mM NaCl, 20 mM Tris pH 7.5) mixed with Laemmli sample buffer and run in non‐reducing conditions; blotted with anti‐tetherin to see tetherin monomer and dimers. Conditions: remark: other sources report otherwise. Background: A western blot detects proteins with antibodies after separation by electrophoresis.

Our source for the binding values is PMC10702813.

Results are given in words; binding and its absence hold for the method and conditions named. Some entries that bind do so weakly or less than the wild type.

B1: tetherin (Bst2), endogenous, Q10589 1-161 (protein)
chain: T1 chain
With B1, the binding entry is recorded as “binds”.
